Experimental data: PubChem BioAssay AID1259327 (Drosophila RNAi Screening Center, 2017)
In all, the deposit lists about 3,100 reagents; below is a random part of them. In the full data, 378 (12%) got an active call. 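Hits include both directions; z-score sign shows ATP rise or fall; raw luminescence values are not plate-normalised.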 The numbers tell different reagents against one gene apart. Names joined by + are all predicted targets of the reagent. The record does not give: the amount of reagent.

Assay: 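Knock-downs altering cellular ATP with no metal added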
System: Drosophila S2R+ cells
Reagents: long dsRNA against Drosophila genes
Timing: 5 days (water added on day 4, read one day later)
Treatment: water added as vehicle, no metal, one day before read-out
Read-out: 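Luciferase ATP signal per well, normalised to plate mean, duplicate average converted to z-score across plates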
Reading the numbers: ATP z-score: higher = more total ATP than typical wells; ATP luminescence: higher = more total ATP
Call rule: 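a hit is any knock-down whose absolute ATP z-score is greater than 1.5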
Meaning of the calls: active = hit: ATP up or down; inactive = no clear ATP change

| gene | dsRNA no. | ATP z-score, duplicate mean | ATP luminescence, replicate 1 (RLU) | ATP luminescence, replicate 2 (RLU) | Outcome |
| --- | --- | --- | --- | --- | --- |
| CG10019 | 1 | -0.565 | 7.52e5 | 8.09e5 | inactive |
| Cse1 | 1 | -0.428 | 6.86e5 | 7.53e5 | inactive |
| CG14196 | 1 | 0.397 | 7.88e5 | 7.83e5 | inactive |
| CG14196 | 2 | -0.0796 | 8.22e5 | 8.59e5 | inactive |
| Tsp42En | 1 | 0.222 | 6.08e5 | 6.72e5 | inactive |
| crb | 1 | 0.578 | 7.75e5 | 7.56e5 | inactive |
| crb | 2 | 0.49 | 5.06e5 | 7.39e5 | inactive |
| SK | 1 | 1.01 | 5.50e5 | 8.72e5 | inactive |
| SK | 2 | 4.38 | 1.06e6 | 1.39e6 | active |
| SK | 3 | -0.858 | 6.69e5 | 7.56e5 | inactive |
| SK | 4 | 0.781 | 9.43e5 | 1.03e6 | inactive |
| tipE | 1 | -1.18 | 5.51e5 | 6.60e5 | inactive |
| tipE | 2 | -0.744 | 5.41e5 | 4.92e5 | inactive |
| MFS1 | 1 | -0.727 | 6.71e5 | 6.28e5 | inactive |
| MFS1 | 2 | -1.1 | 9.52e5 | 1.04e6 | inactive |
| Kap-alpha3 | 1 | 2.11 | 4.35e5 | 8.86e5 | active |
| Sema5c | 1 | 0.669 | 1.02e6 | 9.46e5 | inactive |
| Sema5c | 2 | -0.246 | 9.91e5 | 1.14e6 | inactive |
| CG12438 | 1 | -0.92 | 6.83e5 | 5.75e5 | inactive |
| hrm | 1 | -0.449 | 5.95e5 | 5.63e5 | inactive |
| mthl15 | 1 | 0.383 | 7.79e5 | 7.89e5 | inactive |
| mthl15 | 2 | -0.597 | 4.28e5 | 4.21e5 | inactive |
| Dg | 1 | -1.36 | 4.62e5 | 5.31e5 | inactive |
| Syx1A | 1 | 2.3 | 4.33e5 | 9.34e5 | active |
| Syx1A | 2 | 1.41 | 7.85e5 | 6.12e5 | inactive |
| Or49a | 1 | 0.151 | 7.11e5 | 5.55e5 | inactive |
| Or49a | 2 | 1.14 | 6.19e5 | 4.64e5 | inactive |
| Tsp74F | 1 | 0.178 | 9.50e5 | 8.90e5 | inactive |
| CG5850 | 1 | -0.727 | 4.41e5 | 4.14e5 | inactive |
| CG5850 | 2 | -0.887 | 4.18e5 | 3.72e5 | inactive |
| CG8051 | 1 | 0.348 | 7.22e5 | 8.42e5 | inactive |
| CG8051 | 2 | 0.0509 | 9.33e5 | 1.00e6 | inactive |
| Ir10a | 1 | -1.43 | 5.41e5 | 4.39e5 | inactive |
| Ir10a | 2 | -0.123 | 7.73e5 | 6.82e5 | inactive |
| Ir10a | 3 | 0.495 | 5.23e5 | 7.36e5 | inactive |
| Cralbp + PGRP-LD + Pmi | 1 | 0.0545 | 9.59e5 | 9.98e5 | inactive |
| Or56a | 1 | 0.859 | 7.25e5 | 6.69e5 | inactive |
| Or56a | 2 | -0.933 | 4.05e5 | 3.78e5 | inactive |
| Cad99C | 1 | 1.3 | 5.26e5 | 7.11e5 | inactive |
| Cad99C | 2 | 0.283 | 7.20e5 | 7.49e5 | inactive |
| Gr22b | 1 | 0.412 | 8.16e5 | 7.56e5 | inactive |
| CG6749 | 1 | 0.464 | 1.06e6 | 8.60e5 | inactive |
| CG6749 | 2 | -0.732 | 4.22e5 | 3.87e5 | inactive |
| CG7333 | 1 | -0.232 | 3.14e5 | 6.73e5 | inactive |
| Oamb | 1 | -0.828 | 2.63e5 | 6.69e5 | inactive |
| Oamb | 2 | 0.137 | 7.57e5 | 7.58e5 | inactive |
| Oamb | 3 | -0.874 | 2.65e5 | 6.54e5 | inactive |
| Or10a | 1 | -0.102 | 6.91e5 | 7.67e5 | inactive |
| Or10a | 2 | -1.06 | 9.32e5 | 9.98e5 | inactive |
| CG8860 | 1 | 0.498 | 6.95e5 | 6.34e5 | inactive |
| CG8860 | 2 | -0.164 | 8.20e5 | 8.40e5 | inactive |
| CG1688 | 1 | -0.599 | 4.91e5 | 5.67e5 | inactive |
| Tmhs | 1 | 0.723 | 8.87e5 | 7.27e5 | inactive |
| CG32512 | 1 | -2.59 | 4.69e5 | 6.68e5 | active |
| CG32512 | 2 | -2.39 | 3.92e5 | 3.62e5 | active |
| Zdhhc8 | 1 | -1.03 | 5.36e5 | 7.47e5 | inactive |
| Zdhhc8 | 2 | -1.88 | 3.78e5 | 2.81e5 | active |
| ATP8A | 1 | 0.139 | 7.21e5 | 7.72e5 | inactive |
| ATP8A | 2 | 0.517 | 7.42e5 | 5.90e5 | inactive |
| CG8908 | 1 | -0.997 | 5.86e5 | 4.72e5 | inactive |
| CG8908 | 2 | 0.633 | 5.28e5 | 4.88e5 | inactive |
| Piezo | 1 | 0.552 | 4.82e5 | 5.56e5 | inactive |
| Piezo | 2 | 0.228 | 4.26e5 | 5.37e5 | inactive |
| PGRP-SC1b | 1 | 0.569 | 7.76e5 | 8.08e5 | inactive |
| tinc | 1 | -0.215 | 7.39e5 | 6.98e5 | inactive |
| tinc | 2 | 0.123 | 3.44e5 | 6.76e5 | inactive |
| AstC-R2 | 1 | -1.25 | 7.04e5 | 6.85e5 | inactive |
| AstC-R2 | 2 | -0.719 | 4.42e5 | 3.70e5 | inactive |
